Source: US20170313776A1

Experiments:
[1] = target: recombinant cynomolgus PD-1 (cynomolgus); assay: ELISA, recombinant protein coated
[2] = target: recombinant cynomolgus PD-1 (cynomolgus); assay: ELISA, recombinant protein coated (FIG. 6)
[3] = target: recombinant cynomolgus PD-1 (cynomolgus); assay: ELISA, detection with anti-human IgG4 heavy chain or anti-human lambda light chain
[4] = target: recombinant cynomolgus PD-1 (cynomolgus); assay: ELISA on coated recombinant protein, one antibody concentration (not given)

Measured: binding

B1: anti-PD-1 antibody RG1H10 (IgG, isotype not stated in the assay) (antibody, V domains shown)
VH: QVQLVQSGSELKKPGASVKISCKASGYIFSDNGVNWVRQAPGQGLEWMGWINTKIGNPTYAQGFTGRFVFSLDTSISTTYLQISSLQAGDTAVYYCAREHDYYYGMDVWGQGTTVTVSS
VL: QSALTQPPSASGSPGQSVTISCTGTSSDVGGYNYVSWYQHHPGKAPKLMIYEVSKRPSGVPDRFSGSKSAITASLTISGLLTEDEADYYCSAWDDSLNADVFGGGTKVTVL
binds: [1] | [2] | [3] | [4]

These are yes or no findings as the source states them, for the method shown. Binding can be weak; no strength is given.
